Assay results reported in PubChem BioAssay AID282 (DTP/NCI, 2004).
The list shows only some results of the screen, not a fair sample: it gathers tests that were run many times, whatever their T/C, doses with no T/C, and many T/C values between a quarter and a half above the control. Other doses and runs of a compound stand elsewhere. T/C gives the treated animals as a percentage of the vehicle group. Some doses have a count of surviving animals in place of a T/C: the source files T/C as zero there, which appears to mark a toxic dose or a test without result, not a measured value. Some survivor counts are full or nearly so, which does not show that the dose was tolerated: the source hardly ever lists a survival T/C far under the control, and the zero likely stands for such cases as well. Counts of survivors are from the toxicity check (mostly the fifth day) where no day follows; animals may have died later. Schedule codes are those of the source, taken here to give the interval after Q, in days (D) or hours (H), and the number of doses after X. Some doses were run more than once; the values are given in rising order. Some schedule codes hold Z or #, which are not explained here. Where survival is the endpoint, this PubChem deposit counts one and a half times the control or more as active, and values a quarter to a half above the control carry no call in these data; other NCI protocols may use other cut-offs. Some T/C values are followed by the survivors on the day toxicity was checked, most often the fifth; where none is given, no animal had died by that day.

Test system: BDF1 mice, L1210 terephthalanilide-resistant leukemia ip, survival T/C
Assay: NCI In Vivo Anticancer Drug Screen. Data for tumor model L1210 Leukemia resistant to A Terephthalanilide; NSC 38280 (intraperitoneal) in B6D2F1 (BDF1) mice
Conditions: T/C endpoint: mean survival time, higher T/C = longer survival
Method: The antitumor activity of compounds was measured in mice bearing transplantable tumors. Survival or tumor size were measured and the results are expressed as the measurement made in the treated group (T) divided by the measurement made in the vehicle treated control group (C). The tumor model used in this assay is L1210 Leukemia resistant to A Terephthalanilide; NSC 38280 (intraperitoneal) in B6D2F1 (BDF1) mice

[1] = dose: 1.25 mg/kg/injection, schedule: Q01DX010 (ip), vehicle: saline
[2] = dose: 2.5 mg/kg/injection, schedule: Q01DX010 (ip), vehicle: saline
[3] = dose: 200.0 mg/kg/injection, schedule: Q01DX010 (ip), vehicle: saline
[4] = dose: 25.0 mg/kg/injection, schedule: Q01DX Z (ip), vehicle: carboxymethylcellulose (CMC)
[5] = dose: 100.0 mg/kg/injection, schedule: Q01DX Z (ip), vehicle: carboxymethylcellulose (CMC)
[6] = dose: 250.0 mg/kg/injection, schedule: Q01DX Z (ip), vehicle: carboxymethylcellulose (CMC)
[7] = dose: 50.0 mg/kg/injection, schedule: Q01DX Z (ip), vehicle: carboxymethylcellulose (CMC)
[8] = dose: 500.0 mg/kg/injection, schedule: Q01DX Z (ip), vehicle: carboxymethylcellulose (CMC)
[9] = dose: 800.0 mg/kg/injection, schedule: Q01DX010 (ip), vehicle: saline
[10] = dose: 1600.0 mg/kg/injection, schedule: Q01DX010 (ip), vehicle: saline
[11] = dose: 200.0 mg/kg/injection, schedule: Q01DX010 (sc), vehicle: steroid suspending solution

With `Nc1nc(=S)c2[nH]cnc2[nH]1` the T/C (dose: 0.25 mg/kg/injection, schedule: Q01DX Z (ip), vehicle: carboxymethylcellulose (CMC)) was 140 % of control, the T/C (dose: 0.5 mg/kg/injection, schedule: Q01DX Z (ip), vehicle: carboxymethylcellulose (CMC)) was 128 % of control and the T/C [1] was 136 % of control. The T/C (dose: 1.25 mg/kg/injection, schedule: Q01DX Z (ip), vehicle: carboxymethylcellulose (CMC)) was 140 % of control, the T/C [2] was 144 % of control [5 of 6 alive] and the T/C (dose: 2.5 mg/kg/injection, schedule: Q01DX Z (ip), vehicle: carboxymethylcellulose (CMC)) was 128 % of control. The T/C (dose: 5.0 mg/kg/injection, schedule: Q01DX Z (ip), vehicle: carboxymethylcellulose (CMC)) was 148 % of control, the survivor count (dose: 35.0 mg/kg/injection, schedule: Q01DX Z (ip), vehicle: carboxymethylcellulose (CMC)) was 5 of 6 and the survivor count (dose: 60.0 mg/kg/injection, schedule: Q01DX Z (ip), vehicle: carboxymethylcellulose (CMC)) was 4 of 6. For the same compound, the T/C (dose: 62.0 micrograms/kg/injection, schedule: Q01DX Z (ip), vehicle: carboxymethylcellulose (CMC)) was 125 % of control and the T/C (dose: 250.0 micrograms/kg/injection, schedule: Q01DX Z (ip), vehicle: carboxymethylcellulose (CMC)) was 125 % of control.
In the case of `CS(=O)(=O)OCCCl`, the survivor count (dose: 150.0 mg/kg/injection, schedule: Q01DX010 (ip), vehicle: saline) is reported as 6 of 6 and the survivor count (dose: 350.0 mg/kg/injection, schedule: Q01DX Z (ip), vehicle: saline) is reported as 0 of 6.
In the case of `CN(C)/N=N/c1nc[nH]c1C(N)=O`, the T/C (dose: 50.0 mg/kg/injection, schedule: Q01DX010 (ip), vehicle: saline) is reported as 144 % of control and the T/C [3] is reported as 126 % of control.
For `Cn1c(N)nc2nc[nH]c2c1=S`, the T/C (dose: 18.75 mg/kg/injection, schedule: Q01DX Z (ip), vehicle: carboxymethylcellulose (CMC)) was 130 % of control, the T/C [4] was 127 % of control and the T/C [5] was 128 % of control [5 of 6 alive]. The T/C (dose: 125.0 mg/kg/injection, schedule: Q01DX Z (ip), vehicle: carboxymethylcellulose (CMC)) was 138 % of control [4 of 6 alive] and the survivor count [6] was 0 of 6.
With `O=C(Nc1ccc(C2=NCCCN2)cc1)c1ccc(C(=O)Nc2ccc(C3=NCCCN3)cc2)cc1` the T/C (dose: 2.0 mg/kg/injection, schedule: Q01DX010 (ip), vehicle: other) was 128 % of control and the survivor count (dose: 16.0 mg/kg/injection, schedule: Q01DX010 (ip), vehicle: other) was 5 of 6 and 6 of 6.
With `Oc1cc(CN(CCCl)CCCl)c(O)cc1CN(CCCl)CCCl` the T/C [1] was 125 and 135 % of control, the T/C (dose: 2.0 mg/kg/injection, schedule: Q01DX Z (ip), vehicle: carboxymethylcellulose (CMC)) was 145 % of control [5 of 6 alive] and the T/C [2] was 131 and 132 % of control. For the same compound, the T/C (dose: 4.0 mg/kg/injection, schedule: Q01DX Z (ip), vehicle: carboxymethylcellulose (CMC)) was 134 % of control, the survivor count (dose: 7.5 mg/kg/injection, schedule: Q01DX Z (ip), vehicle: carboxymethylcellulose (CMC)) was 3 of 6 and the survivor count (dose: 10.0 mg/kg/injection, schedule: Q01DX Z (ip), vehicle: carboxymethylcellulose (CMC)) was 1 of 6. For the same compound, the survivor count (dose: 15.0 mg/kg/injection, schedule: Q01DX Z (ip), vehicle: carboxymethylcellulose (CMC)) was 3 of 6, the survivor count (dose: 20.0 mg/kg/injection, schedule: Q01DX Z (ip), vehicle: carboxymethylcellulose (CMC)) was 4 of 6 and the survivor count [4] was 5 of 6. The survivor count [7] was 3 of 6, the survivor count (dose: 75.0 mg/kg/injection, schedule: Q01DX Z (ip), vehicle: carboxymethylcellulose (CMC)) was 1 of 6 and the survivor count [5] was 4 of 6.
`Nc1ncnc2[nH]ncc12` was tested, and the survivor count (dose: 12.0 mg/kg/injection, schedule: Q01DX010 (ip), vehicle: saline) was 6 of 6, the T/C (dose: 18.0 mg/kg/injection, schedule: Q01DX Z (ip), vehicle: carboxymethylcellulose (CMC)) was 137 % of control and the survivor count (dose: 37.5 mg/kg/injection, schedule: Q01DX Z (ip), vehicle: carboxymethylcellulose (CMC)) was 5 of 6. For the same compound, the survivor count [7] was 5 of 6.
With `Nc1nc(SCc2ccccc2)c2[nH]cnc2n1` the T/C (dose: 16.0 mg/kg/injection, schedule: Q01DX010 (ip), vehicle: saline) was 133 % of control, the T/C (dose: 32.0 mg/kg/injection, schedule: Q01DX010 (ip), vehicle: saline) was 128 % of control and the survivor count [6] was 2 of 6. For the same compound, the survivor count [8] was 0 of 6.
For `CS(=O)(=O)OCC(O)C(O)COS(C)(=O)=O` (centres undefined), the survivor count (dose: 100.0 mg/kg/injection, schedule: Q01DX010 (ip), vehicle: saline) was 6 of 6, the T/C (dose: 187.0 mg/kg/injection, schedule: Q01DX Z (ip), vehicle: carboxymethylcellulose (CMC)) was 135 % of control and the T/C [8] was 129 % of control.
`O=c1cnn(C2OC(CO)C(O)C2O)c(=O)[nH]1` (centres undefined) was tested, and the T/C [3] was 132, 139, 148 % of control, the T/C [9] was 134 % of control and the survivor count [9] was 0 of 6. For the same compound, the T/C [10] was 140 % of control and the survivor count [10] was 6 of 6.
`N#[N+]c1cnc([O-])[nH]c1=O` was tested, and the T/C [2] was 125 and 129 % of control, the T/C (dose: 5.0 mg/kg/injection, schedule: Q01DX010 (ip), vehicle: saline) was 127 and 134 % of control and the T/C (dose: 10.0 mg/kg/injection, schedule: Q01DX010 (ip), vehicle: saline) was 127 and 139 % of control. The survivor count (dose: 20.0 mg/kg/injection, schedule: Q01DX010 (ip), vehicle: saline) was 0 of 6, the survivor count (dose: 40.0 mg/kg/injection, schedule: Q01DX Z (ip), vehicle: saline) was 0 of 6 and the survivor count (dose: 80.0 mg/kg/injection, schedule: Q01DX Z (ip), vehicle: saline) was 0 of 6.
For `CCOC(N)=O`, the survivor count (dose: 1000.0 mg/kg/injection, schedule: Q01DX010 (ip), vehicle: saline) was 4 of 6 and 5 of 6, the survivor count (dose: 1500.0 mg/kg/injection, schedule: Q01DX Z (ip), vehicle: saline) was 1 of 6 and the survivor count (dose: 2000.0 mg/kg/injection, schedule: Q01DX Z (ip), vehicle: saline) was 0 of 6.
With `C[C@]12C=CC(=O)C=C1CC[C@@H]1[C@@H]2C(=O)C[C@@]2(C)[C@H]1CC[C@]2(O)C(=O)CO` the T/C (dose: 12.5 mg/kg/injection, schedule: Q01DX010 (sc), vehicle: steroid suspending solution) was 96, 100, 101, 108 % of control, the T/C (dose: 25.0 mg/kg/injection, schedule: Q01DX010 (sc), vehicle: steroid suspending solution) was 95, 96, 101, 104 % of control and the T/C (dose: 50.0 mg/kg/injection, schedule: Q01DX010 (sc), vehicle: steroid suspending solution) was 95, 101, 105, 109 % of control. For the same compound, the T/C (dose: 100.0 mg/kg/injection, schedule: Q01DX010 (sc), vehicle: steroid suspending solution) was 91 [5 of 6 alive], 96, 98, 100 % of control, the T/C [11] was 96 and 102 % of control and the survivor count [11] was 6 of 6.
For `N#CCSc1ncnc2nc[nH]c12`, the T/C [7] was 133 % of control, the survivor count (dose: 120.0 mg/kg/injection, schedule: Q01DX010 (ip), vehicle: saline) was 6 of 6 and the survivor count (dose: 200.0 mg/kg/injection, schedule: Q01DX Z (ip), vehicle: carboxymethylcellulose (CMC)) was 0 of 6. The survivor count (dose: 240.0 mg/kg/injection, schedule: Q01DX010 (ip), vehicle: saline) was 0 of 6.
